Experimental data as given in PubChem BioAssay AID493014 (National Center for Advancing Translational Sciences (NCATS), 2011).
The list shows a part of the results. Shown are side measurements of this screen, not its main read-out; they come without a call. Most of these compounds were active or inconclusive in the main read-out, so they are no random draw. Words in brackets tell the shape of the fitted curve; partial curves, single points and poor fits give uncertain potencies.

Test: qHTS Assay to Find Inhibitors of Chronic Active B-Cell Receptor Signaling
Conditions: ABC-DLBCL IkBa-CBG/CBR reporter, luminescence ratio (green luciferase fused to IkBa over red control in TMD8 lymphoma cells), 4 h
How it was run: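 Compounds up to 46 uM were incubated four hours with TMD8 cells whose green CBG68 luciferase is fused to IkappaBalpha; red CBR luminescence normalised the signal, and concentration-effect curves were fitted to fusion, red and ratio data.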

[1] = measured here: CBR red luminescence, cell number
[2] = measured here: IkBa-CBG green luminescence

| SMILES | AC50 [1] | AC50 [2] |
| --- | --- | --- |
| O=C(CNc1ccccc1Cl)Nc1cc(S(=O)(=O)N2CCOCC2)ccc1Cl | 29.1 µM [falling, single point] |  |
| COc1ccc(N2CCN(S(=O)(=O)c3ccc4c(c3)NC(=O)C(C)S4)CC2)cc1 (stereo not given) | 10 µM [falling, partial curve, poor fit] |  |
| CCOC(=O)C1CCCN(CCC(C)c2ccccc2)C1 (stereo not given) | 6.51 µM [rising, single point] |  |
| COc1cc(NC(=O)CN2C(=O)C(=O)N(C3CCCC3)C2=O)cc(OC)c1 | 6.51 µM [rising, partial curve, poor fit] |  |
| COc1cc(/C=C2/SC(=S)N(CC3CCCO3)C2=O)ccc1O (stereo not given) | 10.3 µM [rising, partial curve] |  |
| c1ccc(-c2cnc(-c3cccnc3)o2)cc1 | 2 µM [rising, full curve, poor fit] | 14.1 µM [falling, partial curve, poor fit] |
| CCCOC(=O)c1ccc(NC(=O)c2ccccc2[N+](=O)[O-])cc1 | 2 µM [falling, partial curve, poor fit] |  |
| Clc1cccc(-n2ncc3c(NCCCN4CCOCC4)ncnc32)c1 | 15.8 µM [falling, partial curve, poor fit] | 0.631 µM [rising, full curve, poor fit] |
| O=C(Cc1ccccc1)NNS(=O)(=O)c1ccc(F)cc1 | 10 µM [falling, partial curve] |  |
| CCCOc1ccc(C(=O)NC(=S)NCc2cccnc2)cc1 | 9.2 µM [falling, partial curve, poor fit] |  |
| CCc1ccc(C2C(C#N)=C(N)SC(N)=C2C#N)s1 | 35.5 µM [falling, partial curve, poor fit] |  |
| CCOc1ccccc1C(=O)NCc1ccc2c(c1)CCN2C(=O)c1ccccc1 | 14.1 µM [falling, single point] |  |
| CC1CCCC(C)N1CCCNC(=O)c1cc2c(s1)-c1ccccc1OC2 (stereo not given) | 20 µM [falling, single point] |  |
| O=C(COC(=O)c1ccccc1)NC1CCCCCC1 | 4.61 µM [rising, full curve] |  |
| O=C(Cn1c(-c2cscn2)nc2ccccc21)Nc1ccc(Cl)cc1 | 23.1 µM [falling, single point] |  |
| Cc1ccc(S(=O)(=O)/N=C(\CCl)N2CCOCC2)cc1 | 16.4 µM [falling, partial curve] |  |
| O=C(Nc1ccn(Cc2ccccc2F)n1)c1ccc(COc2ccccc2Cl)cc1 | 2.91 µM [falling, partial curve, poor fit] |  |
| CC1CCCC(C)N1C(=O)Cn1c(SCC(=O)NCc2ccc3c(c2)OCO3)nc2ccccc21 (stereo not given) | 11.2 µM [falling, single point] |  |
| COc1ccc(C)cc1NC(=S)NNC(=O)c1ccccc1Cl | 13 µM [falling, partial curve, poor fit] |  |
| CC(=O)Nc1cccc(-c2nc3ccccc3[nH]2)c1 | 12.6 µM [falling, partial curve, poor fit] |  |

Arranged by heavy-atom count (descending): three of the compounds above

| SMILES | AC50 [1] | AC50 [2] |
| --- | --- | --- |
| COc1ccc(N2CCN(S(=O)(=O)c3ccc4c(c3)NC(=O)C(C)S4)CC2)cc1 (stereo not given) | 10 µM [falling, partial curve, poor fit] |  |
| CC1CCCC(C)N1CCCNC(=O)c1cc2c(s1)-c1ccccc1OC2 (stereo not given) | 20 µM [falling, single point] |  |
| Cc1ccc(S(=O)(=O)/N=C(\CCl)N2CCOCC2)cc1 | 16.4 µM [falling, partial curve] |  |

The list continues.

| SMILES | AC50 [1] | AC50 [2] |
| --- | --- | --- |
| CN/N=C(\Cc1nc2ccccc2[nH]1)c1ccc([N+](=O)[O-])cc1 | 8.91 µM [falling, partial curve, poor fit] |  |
| O=c1sc2ccccc2n1CCOc1ccccc1 | 3.55 µM [rising, full curve] |  |
| CSC1=N/C(=C\c2ccc(F)cc2)C(=O)S1 | 1.41 µM [rising, full curve] |  |
| O=C(O)c1cccc(COc2ccc(CO)cc2Cl)c1 | 2.06 µM [falling, full curve] | 13 µM [rising, partial curve, poor fit] |
| CCCCOc1cccc(-c2cc(C(=O)NNC(=S)NCC)c3ccccc3n2)c1 | 20.6 µM [falling, single point] |  |
| CC(SC(=S)N1CCOCC1)C(=O)O (stereo not given) | 0.731 µM [falling, full curve, poor fit] |  |
| O=C(Nc1ccc(Br)cn1)c1cccc(-c2cc3ccccc3oc2=O)c1 | 29.1 µM [falling, single point] |  |
| Cc1cccc(NC(=O)CN2CCC(C(=O)c3ccc4c(c3)OCCO4)CC2)c1 | 22.4 µM [falling, partial curve, poor fit] |  |
| O=C(Nc1nnc(-c2ccc(Cl)s2)o1)C1CC1 | 28.2 µM [falling, single point] | 35.5 µM [falling, single point] |
| CCOC(=O)C1=C(C)OC(N)=C(C#N)C1c1cc(C)sc1C (stereo not given) | 35.5 µM [falling, single point] |  |
| Cc1ccc(S(=O)(=O)N(C)CC(=O)N2CCN(c3ccccn3)CC2)cc1 | 3.66 µM [falling, partial curve, poor fit] |  |
| CC/C(=N/Nc1ccc(Cl)cc1)c1cnnc(SC)n1 | 16.4 µM [rising, partial curve] | 23.1 µM [falling, partial curve, poor fit] |
| O=C(CNC(=O)c1ccccc1)NCC1COc2ccccc2O1 (stereo not given) | 16.4 µM [rising, partial curve] |  |
| COc1ccc2c(c1)O/C(=C\c1ccccc1C)C2=O | 6.31 µM [rising, full curve] |  |
| C=CCN1C(=O)C(Cc2cccc(Cl)c2)SC1=Nc1ccc(C(=O)O)cc1 (stereo not given) | 8.91 µM [falling, partial curve, poor fit] | 5.62 µM [rising, partial curve, poor fit] |
| Cc1nc(Nc2ccccc2)sc1-c1ccccc1 | 16.4 µM [falling, partial curve] |  |
| CC(C)CN1CCC(=O)N([C@H](CO)c2ccccc2)CC1 | 0.631 µM [falling, partial curve, poor fit] |  |
| O=C(CSc1nc2nn(-c3ccccc3)c(=O)c-2c2n1CCCCC2)Nc1cccc(F)c1 | 23.1 µM [falling, single point] |  |
| O=C(CN1C(=O)C2CCCCC2C1=O)OCc1nnc(-c2ccccc2)o1 (stereo not given) | 3.16 µM [rising, full curve, poor fit] |  |
